We go through 107 sequences from PubChem BioAssay AID1508600 (Functional Genomics Laboratory (NCATS/FGL), 2020).

Among all 53,000 sequences or so, about 3,700 (7%) were called active.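 The calls were made as follows: active = gene knockdowns whose robust z-score for IL-1 alpha signal is at least 2 or at most -2, so actives lie on both sides; inactive = the rest.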 This is one part of the list.

This assay can be described thus: Components of the Cytosolic LPS Sensing Pathway: Gene Identification via Genome-wide siRNA Screen.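 Also: robust z of the log signal after scaling to non-targeting control siRNA wells of the plate.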 The conditions noted are these: RAW264.7 macrophages, IL-1a HTRF, actives lie on both sides, screened at 100 nM (by protocol), cells primed 5 h with Pam3CSK4 first. The procedure, abridged: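 RAW264.7 mouse macrophages reverse-transfected with single siRNAs (100 nM final) for 48h, primed with Pam3CSK4 for 5 hours, then transfected with LipidA for 24 hour. Supernatant IL-1a read by HTRF; values normalized to negative-control median, log-transformed robust z-scores.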
In the case of GGCUAUUAAAGAUUUGAUGTT against Myef2, the z-score was inactive: -1.27. With GCUCACUAAAUCCUUGAAATT against Trim31, the z-score is inactive: -0.00166. Next, GCCAUAGAAGUAGAAGUAGTT against Rbmx2: active: -2.29; GCUCUAUUUGACCACCUCATT against Gdpd1: inactive: -0.898; GGAAUUUAAGCUGUACACATT against Efcab9: inactive: -0.747.

Consider GGGAAUUCUGAAAUCAUUCTT against Tmem117, for which the z-score is inactive: -0.169. With GGUUGUUGGAAAAGAUGAATT against Ids, the z-score is inactive: -1.55. For the sequence GCUGUGAAUUCCAAAUGCGTT against Myh4, the z-score is active: 3.33. GCAAUAGGCAAUCUGGGAUTT against Olfr52: the z-score is inactive: 0.504.

On to CCGGUACAAUUCCUGUGAUTT against Uevld, for which the z-score is inactive: -1.37. On to GGGAGCAUUUCCUUAUACUTT against Tpmt, for which the z-score was inactive: 0.67. For the sequence GGGAUGAUUAGAAAAUUCUTT against Fam124b, the z-score is inactive: 0.89.

Consider CCUCAUGUAGCAUUUUUCUTT against Pex11b, for which the z-score was inactive: -0.41. Take GCCAGAUCUUAUCAUUAUUTT against Dnajc18: the z-score was inactive: 0.684.

In the case of CCAGAAAUCCCUAUAGAUGTT against Ambra1, the z-score was inactive: -0.742. Turning to GGACCACAGAAGUUCUCAUTT against Pira2, the z-score is active: -2.88. For CGACAAGAAGACUUCGAAUTT against Mnt, the z-score is inactive: -1.28. Next, GGCCAAUUUGAAUAAUCUATT against Zfp119a: inactive: -0.401; CCAGGGACCCGUAAUUUAUTT against Fn3k: inactive: 0.48. On to GCUGAUGGAGAGUUAUUUGTT against Rcbtb1, for which the z-score was inactive: 0.675. Regarding GGAUGACCUUACCAGACACTT against Parp9, the z-score is inactive: 0.252. Turning to CGUGUGUGAUUAAGUCUUATT against Bhlhe23, the z-score is inactive: 0.167. In the case of GGAGUUUUUACUAUCAAAGTT against Gm527, the z-score was inactive: 0.739. In the case of GUGGUCUUUAGUGGUGCUCTT against Mtag2, the z-score is inactive: 1.12.

For GGACUAAGUAUAGAAUUCATT against Gdnf, the z-score was inactive: 1.7. Regarding CGAUGAUGAACGAUGGACATT against Mmp3, the z-score was active: 2.47.

Turning to GGAACAAAAGGUUCCUUUUTT against Kank4, the z-score is inactive: 0.214. Turning to GGCAGCAUUAUCAACCGGATT against Gipc3, the z-score was inactive: -0.0873. For the sequence GCUCAUCGGUCAGAUCAAATT against Syt3, the z-score is inactive: 1.31.

As for “CGGAAAUAAGUUUCCCUUGTT against 2310039H08Rik”, the z-score was inactive: 0.676. Turning to GGCUCCAGUACGUCAUCCUTT against Mon2, the z-score is inactive: 0.701. Consider CGUGUACAUGCUCUACUUUTT against Pla2g15, for which the z-score was inactive: 1.48. Next, GGUUUGCACACACUUUGCCTT against Adgrb2: inactive: -0.624. For GGAAUAAAAGGAGAGAAAGTT against Slc14a2 the value was inactive: 0.0389. Next, CGGUGACGAACAACUUGAATT against Tpm1: inactive: -0.12; GGAGAUUAAAGCUUCAAAATT against Ldhd: inactive: -0.387; GGAAACAGGAUUAAGCUAGTT against Ankrd27: inactive: 0.587. Take CGUGUCCAAAGGUGAAUCATT against Psmd1: the z-score was inactive: -0.767.

Regarding GGACUAUGUCAUCAAGAUUTT against Napsa, the z-score was inactive: -0.137.

Regarding GGAAAGGAUCCAGACUUUATT against Crisp2, the z-score was inactive: 0.171. Next, GGAGAGAAUACUAUUUCAATT against Pknox1: inactive: 1.51; GCGGGAAUGGAACGAAAACTT against Otx1: inactive: 0.929. Consider GCUAAACUCCACCAAGACATT against Grid2ip, for which the z-score is inactive: 0.338. Next, GCAAAGGAUCCAAUUUUAGTT against Rnf227: inactive: 1.28. As to CCUUUCCUUUAUUGAUCUCTT against Olfr888, the z-score is inactive: 0.272.

For the sequence GGAGGAAAAGUAGGUUUGCTT against Peli1, the z-score is inactive: -0.531. On to GGAGUGUUUCCAGAGAGCATT against Meak7, for which the z-score was inactive: 0.119. On to GCUCAGUAAGGUUACUUCCTT against Dmtn, for which the z-score was inactive: 0.357. As for CGUACUCAAAGGCUAACCGTT against Lamc1, the z-score was inactive: -1.22. In the case of GGCAGAUGUCAUCAAUGCUTT against Tspan31, the z-score is inactive: -0.518. Regarding CCACUACGUUGUUGAUCACTT against Pcdhga11, the z-score is inactive: 0.286.

In the case of GGAACUGGUGUCAGUGUUGTT against Psmd14, the z-score was inactive: -1.53. Turning to GCCUGAUGAAGACAUGCAUTT against Fam178b, the z-score is inactive: -1.4. On to GGAACCUAGUUUGUGGAUUTT against Phf24, for which the z-score is inactive: -0.218. As to GAAACUUCCUAAAUAACUUTT against Vmn1r214, the z-score is inactive: -0.458. As for GGACAAAGGGAUUGCCAUUTT against Il1f9, the z-score was inactive: 0.62. With GGUUCUUUGGCUCUGUAUGTT against Atp5c1, the z-score was inactive: -0.64. With GGGUAUUAAGAGCCAACUGTT against Mcts2, the z-score was inactive: 0.297.

Consider CCGCUUGGUUACCAGUGACTT against Nudc, for which the z-score is inactive: 0.301. Take GCUUACCUUACAUUGUAAGTT against Eda2r: the z-score was inactive: 0.464.

Consider GGACUUGUGGCUCAUUGAGTT against Atg2a, for which the z-score is inactive: -1.25. On to GCUGCACGUGAUCAUGGAUTT against Accs, for which the z-score was inactive: 0.852. Take GGUAGUAGUGAAACCCAGGTT against Irs4: the z-score was inactive: -1.28. In the case of GCACUAGACGAGAUGACAATT against Eif4g2, the z-score was inactive: -1.1. With “GGAAUUCUGCACCUCCCAATT against A730020M07Rik”, the z-score was inactive: -0.266. For UGGGUAUUACCAUAAAUGUTT against Tas2r114, the z-score was inactive: 0.53. Consider GGAUUUCCUGGAAAAUUCCTT against St8sia1, for which the z-score was inactive: -0.000682. On to GGCAUGGUGGUCUUUCCUUTT against Sephs1, for which the z-score was inactive: -1.85. With GGAAUAUACCCUGAAACAUTT against Fam71d, the z-score was inactive: 0.0244.

On to CCACCGGGAGAACAAUCAATT against Ago2, for which the z-score is inactive: -0.496. As for CGGACAAGAUAGUAUUCUUTT against Atp2b1, the z-score is inactive: -1.06. Regarding GCCCAACUUUCAACAAGACTT against Ptgds, the z-score is inactive: -0.746. For GGGCGAAAACCAUUCAAAUTT against Zfp112 the value was active: 3.38; for CCGUAUUAGAAAGUAGAUATT against Arpp19, active: 2.01; for GGUUCGUAAAAUUAUUAGGTT against Vcl, inactive: 1.09. Next, GCUAAUCUGAGAAACAGGCTT against Gpatch11: inactive: -0.544; GGGUAUGAAUAUGAGUGCCTT against Golga7b: inactive: -0.465.

Regarding GGAAGAAGAAGUCUUACACTT against Rps27a, the z-score is inactive: 0.801.

With CCCAUUUGGAAUUAUUCCUTT against Arf4, the z-score was inactive: -0.598.

With GGGAAGCUGAUUAUACAUUTT against Serpinf1, the z-score is active: 3.22. In the case of GCAGUAAUGUCCAGGGACATT against Akt2, the z-score was inactive: 0.133. For CCACCUACCCUUUGAGUGGTT against Slc7a12 the value was inactive: -1.45; for GGCUGAGAAUGACAGUUCCTT against Srrt, inactive: -0.696; for GGUUUGAGCUCUUUAUUUUTT against Cyp2j13, inactive: 0.758.

As to GGUGAAAGACCAUUUAUUUTT against Zxdc, the z-score is inactive: 0.657.

For the sequence GGUUCGAGUCUCUUACUCUTT against Pou4f3, the z-score is inactive: -0.574.

Regarding AGCGGACUGAUACAUGAAATT against Fhad1, the z-score was inactive: -0.129.

With GCGGCUAGGAUUUCUGGGATT against Mindy3, the z-score was active: 2.34.

With GAGCAAUGAGCAGAGAUUCTT against H2-D4, the z-score is inactive: 1.93. Regarding GGAAAAAGUGACAAGCAAGTT against Svil, the z-score was inactive: -0.943. As to GGCGAACUGAAGGAUAUGGTT against Anapc5, the z-score is inactive: 0.835. Regarding GGCUUCAGCAUUAAUUGUUTT against Ass1, the z-score was inactive: 0.0164.

With GGAAGAAGAAAGGCAGCUGTT against Parn, the z-score is inactive: -1.44.

GGAAAUCAAGCUUUAGGGCTT against Myct1: the z-score is inactive: 1.19. Consider GGAUAUGAAGGAAUAUGUGTT against Leng8, for which the z-score is inactive: -0.455. On to GGAAGACAGAAAGUCAUUUTT against Chd1l, for which the z-score is inactive: -0.987. Next, GGGUUUGGAGUUUGAUUUATT against Plaat3: inactive: 0.446; GGUGGAGCCAUGUGCAUUGTT against Olfr1246: inactive: 0.812; GCUCCUGGGAUACGUAUUATT against Abhd16a: active: -2. Regarding GGCACCAAACUCAGCCUUATT against Csk, the z-score was inactive: -0.181.

For CGUGGUUUCAGAUUUACAATT against Cnksr3, the z-score was inactive: 0.434. On to GGGCCAGAAUCCAAAUGCUTT against Tox, for which the z-score is inactive: -0.434. Regarding CCCUUUUGUUUAGCUGAUCTT against Glrp1, the z-score was active: -2.14. As to GCAAACAUGUCAAGUCCGATT against Actl6b, the z-score was inactive: 1.07. In the case of GGUUGUUGUUUCAGCAUCCTT against Mrpl18, the z-score is inactive: -1.47. Regarding GGCUAUCUGCUUAUGCUGGTT against Ptch2, the z-score was inactive: -0.314. GGGCCCUUAGAAAAUGUGUTT against Lime1: the z-score is inactive: 0.326.
